{"source": "patent US12558329B2", "about": "(New York University, priority 2021, dated 2026)", "key": {"[1]": {"tested_on": "MIAPACA2 cells", "test": "18O2-GASSP labelling of MIAPACA2 cells treated with MG132, IOX1, DFO or ascorbate", "format": "cell-based, human", "details": "24 hours", "procedure": "As additional controls, MIAPACA2 cells were treated with an iron chelator (DFO, FIG. 5E-5F), a proteasome inhibitor (MG132) to induce proteotoxic stress, and physiological levels of ascorbate, an antioxidant, to determine the effects of ROS on ^18O-labelling. Labelling of ^18O γ-butyrobetaine was blocked by IOX1 and DFO, consistent with the fact that trimethyllysine hydroxylase (TMLH) is an iron-dependent dioxygenase (FIGS. 7A-7D). […] Total levels of ^18O labelled methionine sulfoxide increased upon MG132 treatment and decreased following ascorbate treatment (FIGS. 7I-7M)^10.\nAll steps involved in setting up labelling with ^18O2 were performed at room temperature and inside a chemical fume hood. The procedure may vary depending on the type and number of tissue culture plates in the chamber and the amount of media in the plates. Users must test the system by using ^16O2:CO2:N2 or other unlabelled gases to optimize conditions for their needs and avoid consumption of costly labelled gases. […]\nNext, the inlet valve was opened and the ^18O2:5% CO2:N2 gaseous mixture was flushed into the system at a rate of 2.5 L/min. […] The oxygen concentration in the chamber was monitored regularly. […]"}, "[2]": {"tested_on": "MIAPACA2 cells", "test": "13C9-Tyr tracing in MIAPACA2 cells with the indicated reagents", "format": "cell-based, human", "details": "3% 16O2, 24 hours", "excerpt": "4-HMA biosynthesis has only been described in some bacteria and in rabbits. […] The production of 4-HPPA occurs in the first step of tyrosine (Tyr) catabolism via tyrosine transaminase (TAT). In rabbits, 4-HMA was proposed to be synthesized from the degradation of tyramine and octopamine by dopamine β-hydroxylase (Dbh) and monoamine oxidase (Mao) (FIG. 9A)^13. Tyramine is also a Tyr-derived metabolite. Therefore, all known substrates required to generate 4-HMA are derived from Tyr. In addition, Tyr can also be made from phenylalanine (Phe) by Phe hydroxylase (PAH) in mammalian liver cells^14. To elucidate the human 4-HMA biosynthetic pathway, the fates of ^13C9-Tyr and ^13C6-Phe were traced in human cells. […] Additionally, the generation of 4-HMA by […] would result in the incorporation of a single ^18O at the Ca position of the carboxylic acid of 4-HMA (FIG. 9A). However, this was not observed by ^18O labelling (FIG. 8B). Therefore, it was unlikely that 4-HMA biosynthesis from octopamine and tyramine catabolism occurred in the present system. […]\nTherefore, CoQ10 was used as an indirect readout of 4-HB production. […]\nFor polar metabolomics, the LC column was a Millipore ZIC-pHILIC (2.1×150 […], 5 μm bead size) coupled to a Dionex UltiMate 3000 system. […] Peak heights were analyzed using Xcalibur (ThermoFisher Scientific). […]"}}, "note": "“Also recorded” adds a separate entry of the source. For at least one compound, name, drawing or mass did not settle the structure.", "data": [{"compound": "O=C1O[C@H]([C@@H](O)CO)C(O)=C1O", "note": "[ascorbate]", "values": [{"measurement": "Total levels of 18O labelled methionine sulfoxide", "setting": "[1]; 5 μM MG132, 70 μM ascorbate", "value": "decreased"}, {"measurement": "4-HMA levels", "setting": "[1]; MIAPACA2, 18O2 labelling, 500 μM IOX1, 250 μM DFO, 70 μM ascorbate", "value": "raises; also recorded: increased"}, {"measurement": "13C9-Tyr-derived 4-HMA", "setting": "[2]", "value": "increased"}]}]}
